The record followed here is US20190298728A1.

The chains behind the UniProt entries cited, without tags or fusion partners.
UniProt P42338: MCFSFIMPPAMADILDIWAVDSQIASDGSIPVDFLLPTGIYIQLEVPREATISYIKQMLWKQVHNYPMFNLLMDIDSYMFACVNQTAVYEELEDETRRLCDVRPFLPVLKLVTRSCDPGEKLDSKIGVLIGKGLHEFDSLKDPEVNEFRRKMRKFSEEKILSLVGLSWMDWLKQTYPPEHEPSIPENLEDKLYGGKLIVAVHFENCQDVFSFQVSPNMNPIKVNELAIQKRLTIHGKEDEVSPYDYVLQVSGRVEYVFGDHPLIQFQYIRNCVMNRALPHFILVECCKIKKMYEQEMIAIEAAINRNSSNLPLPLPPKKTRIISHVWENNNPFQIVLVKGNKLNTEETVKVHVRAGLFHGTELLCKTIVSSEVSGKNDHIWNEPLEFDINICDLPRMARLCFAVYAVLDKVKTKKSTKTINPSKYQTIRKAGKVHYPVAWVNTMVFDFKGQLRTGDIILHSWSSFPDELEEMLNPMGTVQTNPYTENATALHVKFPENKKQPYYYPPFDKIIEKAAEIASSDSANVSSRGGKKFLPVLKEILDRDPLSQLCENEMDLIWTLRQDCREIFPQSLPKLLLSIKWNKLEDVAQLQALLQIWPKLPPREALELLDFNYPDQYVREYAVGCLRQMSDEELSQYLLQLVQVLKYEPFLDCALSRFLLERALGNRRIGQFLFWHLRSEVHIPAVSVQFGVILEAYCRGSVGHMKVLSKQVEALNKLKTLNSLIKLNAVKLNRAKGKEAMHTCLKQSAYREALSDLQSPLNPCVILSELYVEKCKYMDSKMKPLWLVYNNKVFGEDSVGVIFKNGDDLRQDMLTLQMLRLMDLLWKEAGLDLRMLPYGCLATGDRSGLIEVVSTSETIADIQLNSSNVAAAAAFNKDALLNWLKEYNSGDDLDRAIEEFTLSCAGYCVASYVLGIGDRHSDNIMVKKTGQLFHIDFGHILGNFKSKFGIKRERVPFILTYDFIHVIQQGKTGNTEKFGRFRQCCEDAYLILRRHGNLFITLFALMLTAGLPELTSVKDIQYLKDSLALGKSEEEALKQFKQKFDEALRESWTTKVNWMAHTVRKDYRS
UniProt P46109: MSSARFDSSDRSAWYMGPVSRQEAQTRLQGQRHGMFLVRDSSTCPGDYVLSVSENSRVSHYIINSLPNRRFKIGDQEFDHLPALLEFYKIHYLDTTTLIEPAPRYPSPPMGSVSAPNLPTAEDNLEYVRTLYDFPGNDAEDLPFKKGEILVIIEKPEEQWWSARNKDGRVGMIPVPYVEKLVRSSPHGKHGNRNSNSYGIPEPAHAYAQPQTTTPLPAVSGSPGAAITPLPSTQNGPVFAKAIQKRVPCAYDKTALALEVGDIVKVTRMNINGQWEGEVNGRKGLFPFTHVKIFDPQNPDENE

For this test, the target named is PI3Kβ (p110β catalytic isoform of PI3K, encoded by PIK3CB) (UniProt P42338). The experiment in a line: taptag (tandem affinity tag) purification of p110β binding proteins.

No constants are given. Whether binding was seen depends on the method and setting. Some results given as binding are weak or reduced against the parent protein; the word gives no strength.

With CRKL (from UniProt P46109 1-303), the binding entry is “binds”.
